Reference: PubChem BioAssay AID743121 (NCATS, 2013)

Screen: 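Partners whose loss is lethal together with topoisomerase I blockade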 (primary screen)
System: MDA-MB-231 cells, a human breast cancer line
Knock-down reagent: single siRNA against human genes, 20 nM siRNA (0.8 pmol per well)
Duration: 120 h (drug added 48 h after transfection, read 72 h later)
Challenge: camptothecin 20 nM (about EC30) for 72 h; vehicle 0.1% DMSO in parallel plates
Detection: 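CellTiter-Glo ATP signal, scaled to control siRNA as percent viability; sensitisation given as log2 of untreated divided by camptothecin-treated viability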
Direction: log2 vehicle/camptothecin viability: higher = stronger sensitisation to camptothecin; viability with camptothecin: higher = more viable cells
Units: viability with camptothecin in % of control
Hit rule: 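Active genes have an RSA gene-level p-value below 0.001, computed from the ratios of their separate siRNAs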
Here is one part, drawn at random, of about 26,000 reagents tested. Of all reagents, 167 (0.63%) were called active. 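Calls are per gene from RSA p-values that are not deposited; an individual active-marked siRNA can sensitise only weakly.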 Reagents against one gene are numbered here. Further read-outs or replicates are left out here. No sequences are given here.

ZNF280A #1 scored log2 vehicle/camptothecin viability -0.112; viability with camptothecin 79.5; inactive.
For ZNF280A #2, the values are log2 vehicle/camptothecin viability 0.122; viability with camptothecin 81.7; inactive.
ZNF280A #3 gave log2 vehicle/camptothecin viability -0.327; viability with camptothecin 68.2; inactive.
Silencing of ANGPTL7 #1 gave: log2 vehicle/camptothecin viability -0.178; viability with camptothecin 97.6; inactive.
After knock-down of ANGPTL7 #2, the record shows log2 vehicle/camptothecin viability -0.0575; viability with camptothecin 26.3; inactive.
ANGPTL7 #3 gave log2 vehicle/camptothecin viability -0.109; viability with camptothecin 119; inactive.
After knock-down of ANGPTL7 #4, the screen gave log2 vehicle/camptothecin viability -0.167; viability with camptothecin 46.8; inactive.
For PGPEP1L #1, the entry reads log2 vehicle/camptothecin viability -0.0718; viability with camptothecin 88; inactive.
PGPEP1L #2 showed log2 vehicle/camptothecin viability -0.505; viability with camptothecin 72.9; inactive.
PGPEP1L #3 scored log2 vehicle/camptothecin viability -0.197; viability with camptothecin 74.7; inactive.
PGPEP1L #4 gave log2 vehicle/camptothecin viability 0.129; viability with camptothecin 40.6; inactive.
SH2B2 #1 showed log2 vehicle/camptothecin viability -0.105; viability with camptothecin 102; inactive.
Knock-down of SH2B2 #2 resulted in: log2 vehicle/camptothecin viability 0.393; viability with camptothecin 57.6; inactive.
SH2B2 #3 showed log2 vehicle/camptothecin viability -0.381; viability with camptothecin 109; inactive.
SH2B2 #4 showed log2 vehicle/camptothecin viability -0.37; viability with camptothecin 93.7; inactive.
For UBE3B #1 the deposit lists log2 vehicle/camptothecin viability -0.131; viability with camptothecin 107; inactive.
For UBE3B #2, the entry reads log2 vehicle/camptothecin viability -0.82; viability with camptothecin 63.4; inactive.
For UBE3B #3, the entry reads log2 vehicle/camptothecin viability -0.433; viability with camptothecin 61.3; inactive.
UBE3B #4 scored log2 vehicle/camptothecin viability 0.298; viability with camptothecin 65.1; inactive.
After knock-down of GRK3 #1 the results were log2 vehicle/camptothecin viability -0.213; viability with camptothecin 72.9; inactive.
GRK3 #2 scored log2 vehicle/camptothecin viability 1.42; viability with camptothecin 24.1; inactive.
GRK3 #3 showed log2 vehicle/camptothecin viability 0.0119; viability with camptothecin 92.2; inactive.
Silencing of GRK3 #4 resulted in: log2 vehicle/camptothecin viability 0.157; viability with camptothecin 84.8; inactive.
With knock-down of EMD #1, the screen gave log2 vehicle/camptothecin viability -0.181; viability with camptothecin 96.8; inactive.
EMD #2 scored log2 vehicle/camptothecin viability -0.243; viability with camptothecin 103; inactive.
EMD #3 scored log2 vehicle/camptothecin viability -0.498; viability with camptothecin 72.1; inactive.
Depletion of EMD #4 resulted in: log2 vehicle/camptothecin viability -0.039; viability with camptothecin 64.9; inactive.
AQP8 #1 scored log2 vehicle/camptothecin viability 0.334; viability with camptothecin 15.1; inactive.
AQP8 #2 showed log2 vehicle/camptothecin viability -0.102; viability with camptothecin 80.2; inactive.
With knock-down of AQP8 #3, the record shows log2 vehicle/camptothecin viability -0.269; viability with camptothecin 88.7; inactive.
With knock-down of SLC2A4 #1, the screen gave log2 vehicle/camptothecin viability -0.218; viability with camptothecin 17.9; inactive.
For SLC2A4 #2, the values are log2 vehicle/camptothecin viability -0.481; viability with camptothecin 60.9; inactive.
After knock-down of SLC2A4 #3, the record shows log2 vehicle/camptothecin viability -0.628; viability with camptothecin 77.5; inactive.
With knock-down of SLC2A4 #4, the screen gave log2 vehicle/camptothecin viability -0.205; viability with camptothecin 74.3; inactive.
Against STX19 #1 the deposit lists log2 vehicle/camptothecin viability -0.316; viability with camptothecin 71.1; inactive.
After knock-down of STX19 #2, the record shows log2 vehicle/camptothecin viability -0.395; viability with camptothecin 64.4; inactive.
STX19 #3 gave log2 vehicle/camptothecin viability 0.00705; viability with camptothecin 91.4; inactive.
For STX19 #4, the entry reads log2 vehicle/camptothecin viability -0.278; viability with camptothecin 46.5; inactive.
Depletion of SLC7A7 #1 gave: log2 vehicle/camptothecin viability 0.488; viability with camptothecin 48.6; inactive.
SLC7A7 #2 gave log2 vehicle/camptothecin viability -0.0395; viability with camptothecin 95.2; inactive.
With knock-down of SLC7A7 #3, the record shows log2 vehicle/camptothecin viability -0.0759; viability with camptothecin 52.2; inactive.
After knock-down of CD40 #1, the record shows log2 vehicle/camptothecin viability -0.267; viability with camptothecin 67.1; inactive.
CD40 #2 gave log2 vehicle/camptothecin viability -0.0416; viability with camptothecin 72.7; inactive.
For CD40 #3, the values are log2 vehicle/camptothecin viability 0.1; viability with camptothecin 111; inactive.
With knock-down of SDHC #1, the screen gave log2 vehicle/camptothecin viability 0.0672; viability with camptothecin 100; inactive.
Silencing of SDHC #2 gave: log2 vehicle/camptothecin viability -0.389; viability with camptothecin 57.5; inactive.
Depletion of SDHC #3 gave: log2 vehicle/camptothecin viability 0.157; viability with camptothecin 83.1; inactive.
Depletion of SDHC #4 resulted in: log2 vehicle/camptothecin viability -0.185; viability with camptothecin 99.4; inactive.

In a second layout: 2 of the entries above
{"Gene": "SLC2A4", "reagent": 4, "log2 vehicle/camptothecin viability": -0.205, "viability with camptothecin": 74.3, "call": "inactive"}
{"Gene": "STX19", "reagent": 1, "log2 vehicle/camptothecin viability": -0.316, "viability with camptothecin": 71.1, "call": "inactive"}
